In article PMC9867282:
These are yes or no findings as the source states them, for the method shown. Binding seen in cells or lysates may run through a third protein. A yes stands for co-enrichment or nearness to the bait. Other partners may have been found. Sequences can lack the tags named with a protein. Blank lines part the entries; values can stand above or below the binder they belong to.

Target: T1, FLAG-BirA*-CCP6 (cytosolic carboxypeptidase 6 fused to FLAG-tagged BirA*) (human) (UniProt Q5VU57)
T1 sequence: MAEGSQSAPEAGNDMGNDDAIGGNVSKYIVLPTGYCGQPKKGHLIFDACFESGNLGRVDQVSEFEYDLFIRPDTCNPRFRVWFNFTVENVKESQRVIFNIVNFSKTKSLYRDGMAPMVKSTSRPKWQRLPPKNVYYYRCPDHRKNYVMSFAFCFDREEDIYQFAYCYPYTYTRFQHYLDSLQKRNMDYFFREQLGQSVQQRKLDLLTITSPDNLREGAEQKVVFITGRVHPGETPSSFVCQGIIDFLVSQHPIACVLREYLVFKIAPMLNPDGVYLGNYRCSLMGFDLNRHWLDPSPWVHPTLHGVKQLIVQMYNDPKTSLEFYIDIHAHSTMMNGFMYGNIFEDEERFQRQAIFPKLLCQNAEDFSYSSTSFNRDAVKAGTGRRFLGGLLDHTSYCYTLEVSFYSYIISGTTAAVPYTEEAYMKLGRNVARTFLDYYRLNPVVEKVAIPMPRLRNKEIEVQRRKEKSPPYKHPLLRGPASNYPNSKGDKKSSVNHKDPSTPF
Assay: proximity labelling; BioID in Flp-In T-REX 293 stable cell pools expressing BirA*-CCP6; tetracycline 1 ug/mL 24 h, then 50 uM biotin 24 h; lysis in 2% SDS, 8 M urea; streptavidin agarose, on-bead trypsin, LC-MS/MS, LFQ; enrichment against GFP-BirA* (t-test, FDR 0.05); three biological replicates

binding: binds
B1: polyglutamylase TTLL5 (enzyme, UniProt Q6EMB2 1-1281)
chain: MPIVMARDLEETASSSEDEEVISQEDHPCIMWTGGCRRIPVLVFHADAILTKDNNIRVIGERYHLSYKIVRTDSRLVRSILTAHGFHEVHPSSTDYNLMWTGSHLKPFLLRTLSEAQKVNHFPRSYELTRKDRLYKNIIRMQHTHGFKAFHILPQTFLLPAEYAEFCNSYSKDRGPWIVKPVASSRGRGVYLINNPNQISLEENILVSRYINNPLLIDDFKFDVRLYVLVTSYDPLVIYLYEEGLARFATVRYDQGAKNIRNQFMHLTNYSVNKKSGDYVSCDDPEVEDYGNKWSMSAMLRYLKQEGRDTTALMAHVEDLIIKTIISAELAIATACKTFVPHRSSCFELYGFDVLIDSTLKPWLLEVNLSPSLACDAPLDLKIKASMISDMFTVVGFVCQDPAQRASTRPIYPTFESSRRNPFQKPQRCRPLSASDAEMKNLVGSAREKGPGKLGGSVLGLSMEEIKVLRRVKEENDRRGGFIRIFPTSETWEIYGSYLEHKTSMNYMLATRLFQDRMTADGAPELKIESLNSKAKLHAALYERKLLSLEVRKRRRRSSRLRAMRPKYPVITQPAEMNVKTETESEEEEEVALDNEDEEQEASQEESAGFLRENQAKYTPSLTALVENTPKENSMKVREWNNKGGHCCKLETQELEPKFNLMQILQDNGNLSKMQARIAFSAYLQHVQIRLMKDSGGQTFSASWAAKEDEQMELVVRFLKRASNNLQHSLRMVLPSRRLALLERRRILAHQLGDFIIVYNKETEQMAEKKSKKKVEEEEEDGVNMENFQEFIRQASEAELEEVLTFYTQKNKSASVFLGTHSKISKNNNNYSDSGAKGDHPETIMEEVKIKPPKQQQTTEIHSDKLSRFTTSAEKEAKLVYSNSSSGPTATLQKIPNTHLSSVTTSDLSPGPCHHSSLSQIPSAIPSMPHQPTILLNTVSASASPCLHPGAQNIPSPTGLPRCRSGSHTIGPFSSFQSAAHIYSQKLSRPSSAKAGSCYLNKHHSGIAKTQKEGEDASLYSKRYNQSMVTAELQRLAEKQAARQYSPSSHINLLTQQVTNLNLATGIINRSSASAPPTLRPIISPSGPTWSTQSDPQAPENHSSSPGSRSLQTGGFAWEGEVENNVYSQATGVVPQHKYHPTAGSYQLQFALQQLEQQKLQSRQLLDQSRARHQAIFGSQTLPNSNLWTMNNGAGCRISSATASGQKPTTLPQKVVPPPSSCASLVPKPPPNHEQVLRRATSQKASKGSSAEGQLNGLQSSLNPAAFVPITSSTDPAHTKI

binding: binds
B2: CCDC14 (protein, UniProt Q49A88 1-953)
chain: MKRGIRRDPFRKRKLGGRAKKVREPTAVNSFYREASLPSVWASLRRREMVRSGARPGQVLSSGRHTGPAKLTNGKKATYLRKIPRFNADSGYSIHSDSESQAETVHGLDGCASLLRDILRNEDSGSETAYLENRSNSRPLESKRYGSKKKRHEKHTIPLVVQKETSSSDNKKQIPNEASARSERDTSDLEQNWSLQDHYRMYSPIIYQALCEHVQTQMSLMNDLTSKNIPNGIPAVPCHAPSHSESQATPHSSYGLCTSTPVWSLQRPPCPPKVHSEVQTDGNSQFASQGKTVSATCTDVLRNSFNTSPGVPCSLPKTDISAIPTLQQLGLVNGILPQQGIHKETDLLKCIQTYLSLFRSHGKETHLDSQTHRSPTQSQPAFLATNEEKCAREQIREATSERKDLNIHVRDTKTVKDVQKAKNVNKTAEKVRIIKYLLGELKALVAEQEDSEIQRLITEMEACISVLPTVSGNTDIQVEIALAMQPLRSENAQLRRQLRILNQQLREQQKTQKPSGAVDCNLELFSLQSLNMSLQNQLEESLKSQELLQSKNEELLKVIENQKDENKKFSSIFKDKDQTILENKQQYDIEITRIKIELEEALVNVKSSQFKLETAEKENQILGITLRQRDAEVTRLRELTRTLQTSMAKLLSDLSVDSARCKPGNNLTKSLLNIHDKQLQHDPAPAHTSIMSYLNKLETNYSFTHSEPLSTIKNEETIEPDKTYENVLSSRGPQNSNTRGMEEASAPGIISALSKQDSDEGSETMALIEDEHNLDNTIYIPFARSTPEKKSPLSKRLSPQPQIRAATTQLVSNSGLAVSGKENKLCTPVICSSSTKEAEDAPEKLSRASDMKDTQLLKKIKEAIGKIPAATKEPEEQTACHGPSGCLSNSLQVKGNTVCDGSVFTSDLMSDWSISSFSTFTSRDEQDFRNGLAALDANIARLQKSLRTGLLEK

binding: binds
B3: KIF7 (protein, UniProt Q2M1P5 1-1343)
chain: MGLEAQRLPGAEEAPVRVALRVRPLLPKELLHGHQSCLQVEPGLGRVTLGRDRHFGFHVVLAEDAGQEAVYQACVQPLLEAFFEGFNATVFAYGQTGSGKTYTMGEASVASLLEDEQGIVPRAMAEAFKLIDENDLLDCLVHVSYLEVYKEEFRDLLEVGTASRDIQLREDERGNVVLCGVKEVDVEGLDEVLSLLEMGNAARHTGATHLNHLSSRSHTVFTVTLEQRGRAPSRLPRPAPGQLLVSKFHFVDLAGSERVLKTGSTGERLKESIQINSSLLALGNVISALGDPQRRGSHIPYRDSKITRILKDSLGGNAKTVMIACVSPSSSDFDETLNTLNYASRAQNIRNRATVNWRPEAERPPEETASGARGPPRHRSETRIIHRGRRAPGPATASAAAAMRLGAECARYRACTDAAYSLLRELQAEPGLPGAAARKVRDWLCAVEGERSALSSASGPDSGIESASVEDQAAQGAGGRKEDEGAQQLLTLQNQVARLEEENRDFLAALEDAMEQYKLQSDRLREQQEEMVELRLRLELVRPGWGGPRLLNGLPPGSFVPRPHTAPLGGAHAHVLGMVPPACLPGDEVGSEQRGEQVTNGREAGAELLTEVNRLGSGSSAASEEEEEEEEPPRRTLHLRRNRISNCSQRAGARPGSLPERKGPELCLEELDAAIPGSRAVGGSKARVQARQVPPATASEWRLAQAQQKIRELAINIRMKEELIGELVRTGKAAQALNRQHSQRIRELEQEAEQVRAELSEGQRQLRELEGKELQDAGERSRLQEFRRRVAAAQSQVQVLKEKKQATERLVSLSAQSEKRLQELERNVQLMRQQQGQLQRRLREETEQKRRLEAEMSKRQHRVKELELKHEQQQKILKIKTEEIAAFQRKRRSGSNGSVVSLEQQQKIEEQKKWLDQEMEKVLQQRRALEELGEELHKREAILAKKEALMQEKTGLESKRLRSSQALNEDIVRVSSRLEHLEKELSEKSGQLRQGSAQSQQQIRGEIDSLRQEKDSLLKQRLEIDGKLRQGSLLSPEEERTLFQLDEAIEALDAAIEYKNEAITCRQRVLRASASLLSQCEMNLMAKLSYLSSSETRALLCKYFDKVVTLREEQHQQQIAFSELEMQLEEQQRLVYWLEVALERQRLEMDRQLTLQQKEHEQNMQLLLQQSRDHLGEGLADSRRQYEARIQALEKELGRYMWINQELKQKLGGVNAVGHSRGGEKRSLCSEGRQAPGNEDELHLAPELLWLSPLTEGAPRTREETRDLVHAPLPLTWKRSSLCGEEQGSPEELRQREAAEPLVGRVLPVGEAGLPWNFGPLSKPRRELRRASPGMIDVRKNPL

binding: binds
B4: nonsense-mediated mRNA decay factor SMG7 (protein, UniProt Q92540 1-1137)
chain: MSLQSAQYLRQAEVLKADMTDSKLGPAEVWTSRQALQDLYQKMLVTDLEYALDKKVEQDLWNHAFKNQITTLQGQAKNRANPNRSEVQANLSLFLEAASGFYTQLLQELCTVFNVDLPCRVKSSQLGIISNKQTHTSAIVKPQSSSCSYICQHCLVHLGDIARYRNQTSQAESYYRHAAQLVPSNGQPYNQLAILASSKGDHLTTIFYYCRSIAVKFPFPAASTNLQKALSKALESRDEVKTKWGVSDFIKAFIKFHGHVYLSKSLEKLSPLREKLEEQFKRLLFQKAFNSQQLVHVTVINLFQLHHLRDFSNETEQHTYSQDEQLCWTQLLALFMSFLGILCKCPLQNESQEESYNAYPLPAVKVSMDWLRLRPRVFQEAVVDERQYIWPWLISLLNSFHPHEEDLSSISATPLPEEFELQGFLALRPSFRNLDFSKGHQGITGDKEGQQRRIRQQRLISIGKWIADNQPRLIQCENEVGKLLFITEIPELILEDPSEAKENLILQETSVIESLAADGSPGLKSVLSTSRNLSNNCDTGEKPVVTFKENIKTREVNRDQGRSFPPKEVRRDYSKGITVTKNDGKKDNNKRKTETKKCTLEKLQETGKQNVAVQVKSQTELRKTPVSEARKTPVTQTPTQASNSQFIPIHHPGAFPPLPSRPGFPPPTYVIPPPVAFSMGSGYTFPAGVSVPGTFLQPTAHSPAGNQVQAGKQSHIPYSQQRPSGPGPMNQGPQQSQPPSQQPLTSLPAQPTAQSTSQLQVQALTQQQQSPTKAVPALGKSPPHHSGFQQYQQADASKQLWNPPQVQGPLGKIMPVKQPYYLQTQDPIKLFEPSLQPPVMQQQPLEKKMKPFPMEPYNHNPSEVKVPEFYWDSSYSMADNRSVMAQQANIDRRGKRSPGVFRPEQDPVPRMPFEKSLLEKPSELMSHSSSFLSLTGFSLNQERYPNNSMFNEVYGKNLTSSSKAELSPSMAPQETSLYSLFEGTPWSPSLPASSDHSTPASQSPHSSNPSSLPSSPPTHNHNSVPFSNFGPIGTPDNRDRRTADRWKTDKPAMGGFGIDYLSATSSSESSWHQASTPSGTWTGHGPSMEDSSAVLMESLKSIWSSSMMHPGPSALEQLLMQQKQKQQRGQGTMNPPH

binding: binds
B5: KIAA0753 (protein, UniProt Q2KHM9 1-967)
chain: MGPGQPASTCVHLAPRTQLDGRSDPKVLQTQNQLQFNRNVPTHSSNLAIRYSCPHAIRIEKLKHSYNESYHCKDADCRVGPDLGSSVSFSVISQERLSYAVHLARRDVKRRQFEKHIKEHHLRSQPQSSQKCGHTKYKIPDHRVERKESKSQAACQCSHQPSKVEISSSGAKVYLYSSHPGQSDLTVPNSPPTHDPGLQPHPRIGDHKNISEQKSLLEVQRLQKELSSCIHKIEEVTKKDRLEEALDPDEERRIRIRRQEQAARSARMLYVLQQQVKEIQEELDKLSPHKIKHTKKSWAMSKLAAAHRGAIRALQMFVTQFTDRGEHPLPARCKELGSLIRQLSLCSVKLDADPSVPDVVIDILQQIEALESLLEKKLSPKKVKKCFSEIRSRFPIGSQKALERWPSTSPKGERRPLTAKDTFPQETSRPSVAKQLLADKYQPDTELPETQRLQSELDVLDADIVLEEGPFILDQSASFKDEVLAVAKTKAGKKKPVTENVPFRKKDTLAPARQQGLRKAERGRQSQPHSKSRVQQTTVSSRLKMNRQPVKDRKAPWIPPNPTSPPASPKCAAWLKVKTSPRDATKEPLQQEDPQEESHLTGAVEHEAARLAWLDAETSKRLKELEELKAKEIDSMQKQRLDWLDAETSRRTKELNELKAEEMYRLQQLSVSATHLADKVEEAVLDRLKPLLVKAQRVNSTTEANIHLKDGSSVNTAKAQPAQEVAAVDFESNNIRQLDDFLEDCASELWAVTHAKILGSETLATVEDSKDSPDLEIMMRRMEEMEKYQESVRQRYNKIAYADPRLWMQEENNDQKISAISEKPLSPHPIRITKTVDRKDPAVNIMLERPCNGNSLDESVGTEEGSEKREAPLLSLAEDSQQKEGRAPLFVPPGMQHSIGDYCSRFEQYLRIISHEAVGSFNPWLIAESFSEELVDEALGAVAAELQDMCEDYAEAVFTSEFLEAAT
